Laboratory results taken from PubChem BioAssay AID540275 (National Center for Advancing Translational Sciences (NCATS), 2011).
About 620 (0.19%) of roughly 320,000 compounds were called active. The shares of active, inactive and inconclusive entries below differ from those in the screen. No stated cut-off is given here; in the data, active means activation above about 80%; inconclusive means between about 30% and that limit; inactive means weaker than that.
Further: 0% is about no effect.

The chains behind the UniProt entries cited, without tags or fusion partners.
UniProt Q8NER1, whole entry, looked up: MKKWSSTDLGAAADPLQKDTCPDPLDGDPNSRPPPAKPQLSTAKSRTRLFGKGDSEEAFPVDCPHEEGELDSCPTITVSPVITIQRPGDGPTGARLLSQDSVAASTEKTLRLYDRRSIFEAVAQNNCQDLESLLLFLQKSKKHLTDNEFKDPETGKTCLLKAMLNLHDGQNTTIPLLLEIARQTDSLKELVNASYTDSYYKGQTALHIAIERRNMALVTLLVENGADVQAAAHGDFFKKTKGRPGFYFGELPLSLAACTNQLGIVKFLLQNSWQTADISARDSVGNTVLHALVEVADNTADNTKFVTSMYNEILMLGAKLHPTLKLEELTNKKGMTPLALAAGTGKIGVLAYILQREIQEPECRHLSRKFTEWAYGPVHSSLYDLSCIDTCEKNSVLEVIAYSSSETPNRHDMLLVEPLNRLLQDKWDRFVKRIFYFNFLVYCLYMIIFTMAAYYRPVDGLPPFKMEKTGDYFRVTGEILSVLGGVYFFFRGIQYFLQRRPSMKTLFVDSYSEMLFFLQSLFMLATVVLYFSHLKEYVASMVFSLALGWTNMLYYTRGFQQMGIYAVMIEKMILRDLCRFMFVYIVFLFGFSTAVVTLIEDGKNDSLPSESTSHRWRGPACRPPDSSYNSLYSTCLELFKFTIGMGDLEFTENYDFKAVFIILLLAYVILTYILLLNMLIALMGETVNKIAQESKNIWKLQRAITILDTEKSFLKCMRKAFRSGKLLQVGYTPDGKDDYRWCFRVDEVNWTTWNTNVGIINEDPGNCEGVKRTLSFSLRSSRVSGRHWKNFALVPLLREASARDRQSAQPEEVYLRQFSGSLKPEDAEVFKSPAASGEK

These compounds were tested against Transient receptor potential cation channel subfamily V member 1 (Homo sapiens) (UniProt Q8NER1) (assay: HTS Assay for Compounds that Act as Agonists of the Vanilloid Receptor 1). Conditions: TRPV1-expressing cells, Fluo-8 calcium influx, agonist mode; at 8.33 µM, stronger effect = higher value.
In short: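 Cells expressing TRPV1 were dye-loaded with Fluo-8 and read kinetically: 10 s baseline, 3 min after compound (agonist portion), then 2 min after EC20 capsaicin (allosteric enhancer portion). Calcium-bound dye fluorescence at 480/520 nm.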
With `O=C(COc1ccc2c(c1)OCO2)Nc1cccc(F)c1` the activation was inconclusive: 49%.
In the case of `Cc1ccc2[nH]c(=O)c(C(c3nnnn3C(C)(C)C)N(Cc3ccco3)CC3CCCO3)cc2c1` (stereo not drawn), the activation is reported as inconclusive: 58%.
`CCOC(=O)N1CCN(c2nc(-c3ccc(F)cc3)cs2)CC1` was tested, and the activation was inconclusive: 43.1%.
For `Fc1ccc(C(CCCn2nnc(-c3cccnc3)n2)c2ccc(F)cc2)cc1`, the activation was inactive: 4%.
For `CC(C)n1ncc2c(C(=O)NCCc3ccc(S(N)(=O)=O)cc3)cc(C3CC3)nc21`, the activation was inconclusive: 42.7%.
`COc1ccc(NC(=S)NCCCc2ccccc2)cc1` was tested, and the activation was inconclusive: 31.4%.
With `Cc1ccc(NC(=O)c2c([N+](=O)[O-])c(C(C)(C)C)nn2C)c(C)c1` the activation was inconclusive: 36.1%.
For `COc1ccc2nc(SCC(=O)Nc3ccccc3OC)[nH]c2c1`, the activation was inconclusive: 34.3%.
`COc1ccc(Br)cc1/C=C/C(=O)c1ccc(NC(C)=O)cc1` was tested, and the activation was inactive: -2.9%.
`O=C(NCCC1=CCCCC1)c1cnc2n(c1=O)CCS2` was tested, and the activation was inconclusive: 51.8%.
For `CCOc1ccc2nc(SCC(=O)N3CCCCCC3)c(C#N)cc2c1`, the activation was inconclusive: 30%.
In the case of `CCCCN1C(=O)C(=Nc2cccc3cnccc23)c2ccccc21`, the activation is reported as inactive: -0.895%.
For `COc1ccc(C(=O)NCCSc2ccc(C)cc2)cc1`, the activation was inconclusive: 62.2%.
For `Cc1ccc2c(N)c(C(=O)c3ccccc3)sc2n1`, the activation was inconclusive: 30.8%.
With `CCC(=O)c1ccc(OCC(=O)OCC(=O)N2CCCc3ccccc32)cc1` the activation was inactive: -1.66%.
For `CC(C)(C)c1csc(NC(=O)CSC2=NCCS2)n1`, the activation was inconclusive: 49.6%.
With `C=CCn1cc(-c2cccc(Cl)c2)cc(C#N)c1=O` the activation was inactive: -4.3%.
`CC(=O)c1ccc(S(=O)(=O)N2CCC(NC(=O)Nc3cccc(F)c3)CC2)cc1` was tested, and the activation was inactive: 8.64%.
For `Cc1nn(-c2ccc(F)cc2)c(Cl)c1/C=C1\C(=O)Nc2ccccc21`, the activation was inconclusive: 30%.
In the case of `CC(C)(C)c1ccc(C(=O)N2CCC3(CC2)NCCc2[nH]cnc23)cc1`, the activation is reported as inactive: 12.5%.
In the case of `COC(=O)[C@H](Cc1c[nH]c2ccccc12)NC(=O)CCCc1c[nH]c2ccccc12`, the activation is reported as inconclusive: 55%.
`Cn1c(CNC(=O)C2CCCCC2)cc2ccccc21` was tested, and the activation was inconclusive: 37%.
With `Cc1cc(C(=O)NN=C2CCCC2)c2ccccc2n1` the activation was inactive: 0.998%.
In the case of `CC(C)Sc1nnc([C@H](Cc2c[nH]c3ccccc23)NC(=O)OC(C)(C)C)o1`, the activation is reported as inconclusive: 49.8%.
For `CNC(=O)c1ccc(NC(=O)/C=C/c2cccc(F)c2)cc1`, the activation was inconclusive: 61.4%.
With `Cc1ccc(-n2nc(-c3ccco3)cc2C(=O)NCc2cccnc2)cc1` the activation was inconclusive: 79.5%.
For `Cc1cc(=O)oc2cc(OCC(=O)N3CCc4ccccc4C3)ccc12`, the activation was inactive: 5.77%.
`CCC(CO)Oc1cc(NC(=O)c2ccc(F)cc2)c2ncn(C(C)C)c2c1` (stereo not drawn) was tested, and the activation was inconclusive: 44.6%.
In the case of `CC(Sc1nc2ccccc2[nH]1)C(=O)Nc1ccccc1F` (stereo not drawn), the activation is reported as inconclusive: 35.1%.
In the case of `O=C(/C=C/c1ccc(OCc2cccc(Cl)c2)cc1)N1CCOCC1`, the activation is reported as inconclusive: 75.9%.
In the case of `CSc1ccc(/C=N/NC(=O)c2ccc(C)c(C)c2)cc1`, the activation is reported as active: 82.1%.
In the case of `CN(CC(=O)NC(=O)NC(C)(C)C)CC(=O)Nc1ccccc1Cl`, the activation is reported as inconclusive: 32.6%.
With `O=C(OCCNc1ncc(C(F)(F)F)cc1Cl)c1ccc(S(=O)(=O)N2CCOCC2)cc1` the activation was inconclusive: 35.7%.
In the case of `Cc1ccc(NC(=O)C2CCN(C(=O)NCc3ccccc3)CC2)cc1C`, the activation is reported as inconclusive: 30.6%.
For `O=[N+]([O-])c1ccc(Cl)cc1Sc1nc2ccccc2o1`, the activation was inactive: 5.94%.
For `CCOc1nc(NCCO)nc(Nc2ccc([N+](=O)[O-])cc2)n1`, the activation was inconclusive: 58.4%.
For `CC(=O)c1ccc(N2CCN(C(=O)COc3ccc4c(c3)CCC4)CC2)cc1`, the activation was inconclusive: 35.3%.
In the case of `O=C(COC(=O)Cc1ccsc1)Nc1ccc(Br)cc1F`, the activation is reported as inconclusive: 32.8%.
In the case of `COc1ccc(/C=C2\SC(=O)N(CCn3cnnn3)C2=O)cc1`, the activation is reported as inactive: 11.6%.
In the case of `COc1ccc(C)cc1NC(C)C(=O)NC(=O)NC1CCCCC1` (stereo not drawn), the activation is reported as inactive: 17.2%.
For `Cc1ccc(-n2cc(CNCCc3cscn3)c(-c3ccc(F)cc3)n2)cc1`, the activation was inconclusive: 38.4%.
In the case of `CC(C)c1ccc(NC(=O)C2CCN(S(C)(=O)=O)CC2)cc1`, the activation is reported as inconclusive: 63.4%.
`Cc1ccc(C2(C)NC(=O)N(CC(=O)Nc3ccccc3N3CCCCC3)C2=O)cc1` (stereo not drawn) was tested, and the activation was inconclusive: 33.4%.
In the case of `CCC(=O)NC(c1ccc(OC)cc1)c1cc(Cl)c2cccnc2c1O` (stereo not drawn), the activation is reported as active: 84.3%.
`C/C(=N/NC(=O)CNC(=O)c1cccc(F)c1)c1ccc2c(c1)CCCC2` was tested, and the activation was inconclusive: 33.5%.
For `CC(C)c1ccc(/C=C2\SC(N3CCOCC3)=NC2=O)cc1`, the activation was inconclusive: 68.2%.
With `COCCCNC(=O)c1c(NC(=O)c2cccs2)sc2c1CCCC2` the activation was inconclusive: 38.1%.
For `Cc1ccccc1OCCc1c(C)[nH]c(=S)[nH]c1=O`, the activation was inactive: -0.732%.
With `Cc1ccc(C(=O)c2c[nH]cc2-c2ccccc2)cc1` the activation was inconclusive: 51.7%.
In the case of `CO/N=C/c1cn(-c2ccc(Cl)cc2)nn1`, the activation is reported as inconclusive: 34.4%.
With `Cc1cccc(N2CCN(S(=O)(=O)c3c(C)nc4scc(C)n4c3=O)CC2)c1C` the activation was inconclusive: 43.4%.
With `CC(C)Oc1cccc(C(=O)Nc2ccc(Br)cc2F)c1` the activation was inconclusive: 77.3%.
In the case of `COc1ccccc1NC(=O)NCCCCc1ccccc1`, the activation is reported as inconclusive: 46.4%.
For `COC(=O)C1CCN(CC(=O)N(C)c2c(N)n(Cc3ccccc3)c(=O)[nH]c2=O)CC1`, the activation was inactive: -2.37%.
With `CCOC(=O)[C@@H]1[C@H]2COc3ccc(Br)cc3[C@@H]2N2C(=O)N(c3ccc(C)cc3)C(=O)[C@]12C` the activation was inconclusive: 35.9%.
`CC(C)(C)c1ccc(C(=O)Nc2ccc(S(N)(=O)=O)cc2)cc1` was tested, and the activation was active: 86.3%.
In the case of `COc1ccccc1-n1cnnc1SCC(=O)Nc1ccccc1`, the activation is reported as inactive: -4.85%.
With `COc1ccc(-c2cc(-c3ccccc3)n[nH]2)c(O)c1` the activation was inactive: -2.18%.
